Laboratory results taken from patent US20250026841A1.
Results are given in words; binding and its absence hold for the method and conditions named. Some binding calls cover weakened binding; strength is not graded here.

T1: peptides with the consensus motif KFPDE (SEQ ID NO:96)
T1 sequence (peptide): KFPDE

B1: anti-p95HER2 antibody clone R4-15 (antibody, human IgG1, V domains shown)
VH: QITLKESGPTLVKPTQTLTLTCTFSGFSLSSGGVGVGWIRQPPGKALEWLALIYWDDDKRYSPSLKSRLTITKDTSKKQVVLTMTNMDPVDTATYYCAHLDYPENYFDQWGQGTLVTVSS
VL: DIQMTQSPSSLSASVGDRVTFTCRASQSISTYLNWYQQKPGKAPKLLIYAASTLQSGVPSRFSGSGSGTDFTLAISSLQPEDFATYFCQQSYSFPTFGQGTRLEIKR
B2: anti-p95HER2 antibody clone R4-5 (antibody, human IgG1, kappa, V domains shown)
VH: QITLKESGPALVKPTQTLTLTCTFSGFSLSTSGVGVGWIRQPPGKALEWLALIYWDDDKRYSPSLKSRLTITKDTSKNQVVLTMTNMDPVDTATYYCAHSRLPYNSHGYWGQGTTVTVSS
VL: DIQMTQSPSSLSASVGDRVTITCQASQAIGNYLSWYQQKPGRAPKLLIYAASTLHSGVPSRFSGSGSGTDFTLTITSLQPDDFATYYCQQSYSVPVTFGLGTKLEIKR
B3: anti-p95HER2 antibody clone R4-11 (antibody, human IgG1, kappa, V domains shown)
VH: QITLKESGPTLVKPTQTLTLTCTFSGFSLSTSGVGVGWIRQPPGKALEWLALIYWDDDKRYSPSLKSRLTITKDTSKNQVVLTMTNMDPVDTATYYCAHAHPFSGSYNFWGQGTLVTVSS
VL: DIVMTQSPDSLAVSLGERATINCKSSQSVLFSSNNKDYLAWYQQRPGQPPKLLIHWASTREPGVPDRFSGSGSGTDFTLTISSLQAEDVAVYYCLQSYSNPPTFGQGTKVEIKR

Molecular target: T1, peptides with the consensus motif KFPDE (SEQ ID NO:96)
Test: linear peptide microarray, antibody at 1 µg/ml

| Binder | binding |
| --- | --- |
| B1 | binds |
| B2 | binds |
| B3 | binds |

Molecular target: T1, peptides with the consensus motif KFPDE (SEQ ID NO:96)
Test: linear peptide microarray, spot intensities

| Binder | binding |
| --- | --- |
| B1 | binds |
| B2 | binds |
| B3 | binds |
